Among the data in patent US20100227824A1 are binding values, retold here.

Sequences of proteins named here, by UniProt entry; tags and fusion partners are left off. A change or cut given only in a name is not applied to a line headed by its entry. Residues count along the entry.
UniProt P78423, residues 25-100: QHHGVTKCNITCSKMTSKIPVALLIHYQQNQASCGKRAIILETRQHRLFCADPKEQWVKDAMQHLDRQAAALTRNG
UniProt P10145, residues 28-99: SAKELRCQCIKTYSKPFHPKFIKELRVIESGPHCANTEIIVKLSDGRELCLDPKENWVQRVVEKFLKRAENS
UniProt P48061: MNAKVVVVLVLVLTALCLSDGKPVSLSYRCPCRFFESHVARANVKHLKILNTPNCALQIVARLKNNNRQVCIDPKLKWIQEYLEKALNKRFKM
SDF-1β (CXCL12): residues 22-93 of P48061
SDF-1 (isoform not told): residues 22-89 of P48061
UniProt Q9Y258, residues 24-94: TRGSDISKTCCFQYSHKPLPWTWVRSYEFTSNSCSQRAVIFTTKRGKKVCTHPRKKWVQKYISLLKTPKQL
UniProt P13501, residues 24-91: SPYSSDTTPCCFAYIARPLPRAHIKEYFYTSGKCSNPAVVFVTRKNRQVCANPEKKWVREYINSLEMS
UniProt O15444, residues 24-150: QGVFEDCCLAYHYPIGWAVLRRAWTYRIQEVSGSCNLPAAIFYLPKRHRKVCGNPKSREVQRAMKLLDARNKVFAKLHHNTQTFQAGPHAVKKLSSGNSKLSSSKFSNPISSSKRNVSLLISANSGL

Results are given in words; binding and its absence hold for the method and conditions named. Some results given as binding are weak or reduced against the parent protein; the word gives no strength.

Experiment [1] deals with Fractalkine (CX3CL1) (UniProt P78423). The experiment is described as follows: micro-array, phage-presented peptide on printed CK.
Experiment [2] addresses IL-8 (CXCL8) (UniProt P10145). The experiment is described as follows: micro-array, phage-presented peptide on printed CK.
For experiment [3], the target named is SDF-1 (isoform not told) (UniProt P48061). The experiment is described as follows: micro-array, phage-presented peptide on printed CK.
For experiment [4], the target named is Fractalkine (CX3CL1) (UniProt P78423). The experiment is described as follows: micro-array, biotinylated peptide on printed CK.
Experiment [5] addresses IL-8 (CXCL8) (UniProt P10145). The experiment is described as follows: micro-array, biotinylated peptide on printed CK.
The target in experiment [6] is SDF-1 (isoform not told) (UniProt P48061). The experiment is described as follows: micro-array, biotinylated peptide on printed CK.
Experiment [7] concerns the target T1, BCA-1 (CXCL13) (UniProt O43927).
T1 sequence (looked up): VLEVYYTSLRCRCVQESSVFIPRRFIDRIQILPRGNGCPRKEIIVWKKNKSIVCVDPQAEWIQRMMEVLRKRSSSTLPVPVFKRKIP
The experiment is described as follows: micro-array, phage-presented peptide on printed CK.

For experiment [8], the target named is Eotaxin 3 (CCL26) (UniProt Q9Y258). The experiment is described as follows: micro-array, phage-presented peptide on printed CK.
For experiment [9], the target named is T2, I-309 (CCL1) (UniProt P22362).
T2 sequence (looked up): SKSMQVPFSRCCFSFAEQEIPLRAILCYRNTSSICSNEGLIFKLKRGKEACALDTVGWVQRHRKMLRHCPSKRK
The experiment is described as follows: micro-array, phage-presented peptide on printed CK.

Experiment [10] concerns the target T3, I-TAC (CXCL11) (UniProt O14625).
T3 sequence (looked up): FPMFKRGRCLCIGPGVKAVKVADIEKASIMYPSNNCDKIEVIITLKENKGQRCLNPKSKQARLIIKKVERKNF
The experiment is described as follows: micro-array, phage-presented peptide on printed CK.

Experiment [11] has as its target RANTES (CCL5) (UniProt P13501). The experiment is described as follows: micro-array, phage-presented peptide on printed CK.
Experiment [12] deals with SDF-1β (CXCL12) (UniProt P48061). The experiment is described as follows: micro-array, phage-presented peptide on printed CK.
The target in experiment [13] is TECK (CCL25) (UniProt O15444). The experiment is described as follows: micro-array, phage-presented peptide on printed CK.

B1: Phage-Presented Peptide 20 (Ph-p20) (peptide)
peptide: TKCQKE
Regarding B1, the binding entry in experiment [1] and in [2] was “binds” throughout.

B2: Phage-Presented Peptide 31 (Ph-p31) (peptide)
peptide: DYDYG
In the case of B2, the binding result in [1] was “binds”.

B3: Phage-Presented Peptide 8.8 (Ph-p8.8) (peptide)
peptide: WVFGAAMCK
In the case of B3, the binding result in experiment [1], in experiment [2] and in experiment [3] was “binds” throughout.

B4: Phage-Presented Peptide 17 (Ph-p17) (peptide)
peptide: HYTCSSHFP
In the case of B4, in experiment [2], the binding entry is “binds”.

B5: Phage-Presented Peptide 18 (Ph-p18) (peptide)
peptide: DRYLNIVHAT
B5: the binding entry in experiment [2] is listed as “binds”.

B6: Phage-Presented Peptide 8.77 (Ph-p8.77) (peptide)
peptide: WVFGVHFCK
For B6, the binding entry in experiment [1] was “binds”.

B7: Phage-Presented Peptide 27 (Ph-p27) (peptide)
peptide: SYYDDVGL
As for B7, the binding entry in [1] and in experiment [2] was “binds” in each case.

B8: Chemokine Binding Peptide 5 (CBP5) (peptide)
peptide: LFGNDCE
modifications: biotinylated (N-terminus)
As for B8, the binding entry in experiment [4], in experiment [5] and in experiment [6] was “binds” in each case.

B9: Phage-Presented Peptide 16 (Ph-p16) (peptide)
peptide: HHTCSLHFP
As to B9, the binding entry in experiment [1] and in experiment [2] was “binds” throughout.

B10: Chemokine Binding Peptide 10 (CBP10) (peptide)
peptide: FFGLNNC
modifications: biotinylated (N-terminus)
In the case of B10, the binding result in [4] is listed as “binds”.

B11: Phage Presented (Ph) Peptide (p) 8 (peptide)
peptide: WVFGNAMCK
B11: the binding result in experiment [7], in [8], in experiment [1], in [9], in experiment [10] and in [2] was “binds” each time. Further, the binding entry in experiment [11], in experiment [3], in experiment [12] and in [13] was “binds” throughout.

B12: Phage-Presented Peptide 25 (Ph-p25) (peptide)
peptide: WVFGHGMCK
As to B12, in [1], the binding result is “binds”.

B13: Phage-Presented Peptide 30 (Ph-p30) (peptide)
peptide: DYDYGAPC
For B13, the binding result in [1] is given as “binds”.

B14: Phage-Presented Peptide 15 (Ph-p15) (peptide)
peptide: WVFGSGLCK
In the case of B14, the binding result in [1] and in experiment [2] was “binds” each time.
